# The exact form of at least one protein or probe is not confirmed. For some of these results: No signal at the amounts used counts as a negative. For some of these results: A weaker result is weaker than the reference pair of the same experiment.
# Legend:
# Hop2 + Mnd1 = experiment: fluorescence anisotropy; conditions: 5 mM Mg2+; Fluorescence anisotropy: 20 mM Tris-HCl pH 7.5, 100 mM NaCl, 5 mM MgCl2, 25 C, 50 nM DNA, triplicate; recombinant protein; label: 5'-fluorescein; single-stranded DNA
# Hop2 + Mnd1 + Dmc1 = experiment: Exonuclease I protection; conditions: Dmc1 nucleofilament; recombinant protein; single-stranded DNA
# [1] = system: Hop2 LZ2+LZ3wCH + Mnd1 LZ2+LZ3wCH + Dmc1; experiment: Exonuclease I protection; conditions: Dmc1 nucleofilament, protection similar to wild type; recombinant protein; single-stranded DNA
# [2] = system: Hop2 LZ3wCH + Mnd1 LZ3wCH + Dmc1; experiment: Exonuclease I protection; conditions: Dmc1 nucleofilament, protection similar to wild type; recombinant protein; single-stranded DNA
# [3] = system: Hop2 dWHD + Mnd1 dWHD + Dmc1; experiment: Exonuclease I protection; conditions: Dmc1 nucleofilament, protection similar to wild type; recombinant protein; single-stranded DNA
# Hop2-Mnd1 WHD+LZ1 + Dmc1 = experiment: Exonuclease I protection; conditions: Dmc1 nucleofilament, far less protective; recombinant protein; protein details: N-terminal His10-MBP; single-stranded DNA
# Hop2-Mnd1 dLZ3wCH + Dmc1 = experiment: Exonuclease I protection; conditions: Dmc1 nucleofilament, far less protective; recombinant protein; protein details: N-terminal His10-MBP; single-stranded DNA
sequence,measurement,setting,value
GCGGGTAATCCAGATGTTCCACGTGAAACAGAACAACTAA [40-mer ssDNA],binding result,Hop2 + Mnd1,no binding
CGGCATCAGAGCAGATTGTACTGAGAGTGCACCATATGCGGTGTGAAATACCGCACAGAT [60-mer ssDNA],binding result,Hop2 + Mnd1 + Dmc1,binds
same,binding result,[1],binds
same,binding result,[2],binds
same,binding result,[3],binds
same,binding result,Hop2-Mnd1 WHD+LZ1 + Dmc1,binds more weakly
same,binding result,Hop2-Mnd1 dLZ3wCH + Dmc1,binds more weakly

# — article PMC4402518
